Laboratory results published in article PMC11058089.
These are yes or no findings as the source states them, for the method shown. Binding seen in cells or lysates may run through a third protein. Some entries that bind do so weakly or less than the wild type.

By UniProt entry, the sequences of proteins in these tests, tags left out.
UniProt P08050: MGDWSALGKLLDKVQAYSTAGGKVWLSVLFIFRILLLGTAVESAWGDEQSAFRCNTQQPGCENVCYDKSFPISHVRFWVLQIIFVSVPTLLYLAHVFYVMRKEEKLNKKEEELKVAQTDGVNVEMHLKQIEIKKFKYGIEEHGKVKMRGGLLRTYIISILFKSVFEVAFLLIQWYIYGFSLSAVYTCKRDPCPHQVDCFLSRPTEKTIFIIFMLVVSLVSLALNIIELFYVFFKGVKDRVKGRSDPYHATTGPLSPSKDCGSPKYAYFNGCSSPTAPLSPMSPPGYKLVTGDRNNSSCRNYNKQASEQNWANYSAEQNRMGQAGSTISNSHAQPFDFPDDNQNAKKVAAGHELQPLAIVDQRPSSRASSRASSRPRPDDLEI
UniProt O95377: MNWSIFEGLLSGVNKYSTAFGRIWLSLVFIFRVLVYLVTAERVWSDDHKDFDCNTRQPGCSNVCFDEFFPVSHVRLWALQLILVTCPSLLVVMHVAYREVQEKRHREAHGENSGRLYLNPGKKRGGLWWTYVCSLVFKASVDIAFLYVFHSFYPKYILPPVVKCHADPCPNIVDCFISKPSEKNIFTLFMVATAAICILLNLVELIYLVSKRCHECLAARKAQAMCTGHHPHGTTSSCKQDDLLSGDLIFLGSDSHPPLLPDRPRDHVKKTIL

How the values were obtained:
[1] = molecular target: endogenous Cx43 of rat epidermal keratinocytes (rat (endogenous in REKs)) (UniProt P08050); assay: co-IP; REKs expressing Cx31.1–FLAG, lysed 24 h after transfection in IP buffer (10 mM Tris-HCl pH 7.4, 150 mM NaCl, 1 mM EDTA, 1 mM EGTA, 0.5% NP-40, 1% Triton X-100); IP with rabbit anti-Cx43 on protein G magnetic beads, 1000 μg lysate, 30 min at room temperature; blot for FLAG
[2] = molecular target: Cx31.1–FLAG (human Cx31.1, from pCMV6-Cx31.1-Myc-DDK) (human) (UniProt O95377); assay: co-IP; REKs expressing Cx31.1–FLAG, lysed 24 h after transfection in IP buffer (10 mM Tris-HCl pH 7.4, 150 mM NaCl, 1 mM EDTA, 1 mM EGTA, 0.5% NP-40, 1% Triton X-100); IP with rabbit anti-FLAG on protein G magnetic beads, 1000 μg lysate, 30 min at room temperature; blot for Cx43

Row | binding [1] | binding [2] | Substance
1 | binds | – | Cx31.1–FLAG (human Cx31.1, from pCMV6-Cx31.1-Myc-DDK) (from UniProt O95377 1-273)
2 | – | binds | endogenous Cx43 of rat epidermal keratinocytes (from UniProt P08050 1-382)
